# In patent US6420384B2, “Proton pump inhibitors” (Ariad Pharmaceuticals, Inc., priority 1999, dated 2002):
# At least one structure is not confirmed: it was looked up by name or label, or the drawing left a doubt.
# Settings: TSK-Gel HA 1000 HPLC column; linear gradient 10 mM to 500 mM sodium phosphate, 0.15 N NaCl, pH 6.8; corrected using two reference compounds
structure (smiles),measurement,value
CN(C)[C@@H]1C(O)=C(C(N)=O)C(=O)[C@@]2(O)C(O)=C3C(=O)c4c(O)cccc4[C@@](C)(O)[C@H]3C[C@@H]12 [tetracycline],K′ value (corrected retention K = (retention time-void time)/void),2.0
